PMC6389942

Experiments:
[1] = target: AKAP9 C-terminus (a.a. 3643–3907) containing the PACT domain (human); experiment: co-IP; HEK293T cells co-expressing both proteins; lysis buffer 20 mM Tris/HCl pH 7.5, 50 mM NaCl, 1% TritonX-100, 5 mM EGTA, 1 mM DTT, 2 mM MgCl2; IP with FLAG antibody-conjugated M2 agarose, 2 h at 4 °C; western blotting
[2] = target: FLAG-PCNT ΔPACT (C-terminal fragment lacking the region of a.a. 3139–3216) (human); experiment: as above

- binding [1]: binds
- binding [2]: no binding
B1: HA-Cep57 (centrosomal protein of 57 kDa, full length) (protein, UniProt Q86XR8-1 1-500)
chain: MAAASVSAASGSHLSNSFAEPSRSNGSMVRHSSSPYVVYPSDKPFLNSDLRRSPSKPTLAYPESNSRAIFSALKNLQDKIRRLELERIQAEESVKTLSRETIEYKKVLDEQIQERENSKNEESKHNQELTSQLLAAENKCNLLEKQLEYMRNMIKHAEMERTSVLEKQVSLERERQHDQTHVQSQLEKLDLLEQEYNKLTTMQALAEKKMQELEAKLHEEEQERKRMQAKAAELQTGLETNRLIFEDKATPCVPNARRIKKKKSKPPEKKSSRNYFGAQPHYRLCLGDMPFVAGKSTSPSHAVVANVQLVLHLMKQHSKALCNDRVINSIPLAKQVSSRGGKSKKLSVTPPSSNGINEELSEVLQTLQDEFGQMSFDHQQLAKLIQESPTVELKDKLECELEALVGRMEAKANQITKVRKYQAQLEKQKLEKQKKELKATKKTLDEERNSSSRSGITGTTNKKDFMKLRPGEKRRKNLQLLKDMQSIQNSLQSSSLCWDY

No constants are given. Whether binding was seen depends on the method and setting. Binding seen in cells or lysates may run through a third protein. For some assays here: A result given as binding can be weak or reduced; the word gives no strength. Where a sequence is shown, tags or fusion partners need not be part of it.
